## Drug screen on melanoma cell lines: apoptosis marker

Data from the primary screen of doi:10.1371/journal.pone.0140310, rounded.

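The test systems are human melanoma cell lines, treated with two drugs together for 72 h and then stained and imaged. Values are the share of nuclei positive for cleaved PARP as a percentage of the same share in the DMSO control: 100 is the control level, higher means more apoptosis. Concentrations were fixed for each drug; these are the higher of two levels. No replicate spread is given; individual values may be noisy. The marker varies much from line to line, for technical or biological reasons.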
Only some of the drugs and lines screened are listed, without regard to their results.

Compounds and concentrations:
selumetinib (75 nM): Cn1cnc2c(F)c(Nc3ccc(Br)cc3Cl)c(C(=O)NOCCO)cc21
OSU-03012 (5000 nM): NCC(=O)Nc1ccc(-n2nc(C(F)(F)F)cc2-c2ccc3c(ccc4ccccc43)c2)cc1
ABT-263 (2000 nM): CC1(C)CCC(c2ccc(Cl)cc2)=C(CN2CCN(c3ccc(C(=O)NS(=O)(=O)c4ccc(N[C@H](CCN5CCOCC5)CSc5ccccc5)c(S(=O)(=O)C(F)(F)F)c4)cc3)CC2)C1
nutlin-3 (500 nM): COc1ccc(C2=N[C@@H](c3ccc(Cl)cc3)[C@@H](c3ccc(Cl)cc3)N2C(=O)N2CCNC(=O)C2)c(OC(C)C)c1
BMS-536924 (1000 nM): Cc1cc(N2CCOCC2)cc2[nH]c(-c3c(NC[C@@H](O)c4cccc(Cl)c4)cc[nH]c3=O)nc12
GSK650394 (800 nM): O=C(O)c1ccc(-c2c[nH]c3ncc(-c4ccccc4)cc23)cc1C1CCCC1
KU-0063794 (100 nM): COc1ccc(-c2ccc3c(N4CCOCC4)nc(N4C[C@@H](C)O[C@@H](C)C4)nc3n2)cc1CO
pioglitazone (10000 nM): CCc1ccc(CCOc2ccc(CC3SC(=O)NC3=O)cc2)nc1 (stereo unspecified)
sorafenib (2000 nM): CNC(=O)c1cc(Oc2ccc(NC(=O)Nc3ccc(Cl)c(C(F)(F)F)c3)cc2)ccn1
gemcitabine (2 nM): Nc1ccn([C@@H]2O[C@H](CO)[C@@H](O)C2(F)F)c(=O)n1
ENMD-2076 (200 nM): Cc1cc(Nc2cc(N3CCN(C)CC3)nc(/C=C/c3ccccc3)n2)n[nH]1
CX-4945 (2000 nM): O=C(O)c1ccc2c(c1)nc(Nc1cccc(Cl)c1)c1ccncc12
bexarotene (10000 nM): C=C(c1ccc(C(=O)O)cc1)c1cc2c(cc1C)C(C)(C)CCC2(C)C
vatalanib (10000 nM): Clc1ccc(Nc2nnc(Cc3ccncc3)c3ccccc23)cc1
vincristine (0.5 nM): CC[C@]1(O)C[C@H]2CN(CCc3c([nH]c4ccccc34)[C@@](C(=O)OC)(c3cc4c(cc3OC)N(C=O)[C@H]3[C@@](O)(C(=O)OC)[C@H](OC(C)=O)[C@]5(CC)C=CCN6CC[C@]43[C@@H]65)C2)C1
FH535 (5000 nM): Cc1cc([N+](=O)[O-])ccc1NS(=O)(=O)c1cc(Cl)ccc1Cl
IMD-0354 (80 nM): O=C(Nc1cc(C(F)(F)F)cc(C(F)(F)F)c1)c1cc(Cl)ccc1O
lestaurtinib (20 nM): C[C@]12O[C@H](C[C@]1(O)CO)n1c3ccccc3c3c4c(c5c6ccccc6n2c5c31)CNC4=O
YM155 (2 nM): COCC[n+]1c2c(n(Cc3cnccn3)c1C)C(=O)c1ccccc1C2=O
bortezomib (5 nM): CC(C)C[C@H](NC(=O)[C@H](Cc1ccccc1)NC(=O)c1cnccn1)B(O)O

{"combination": "lestaurtinib and IMD-0354", "MeWo": 77.4, "COLO 792": 181, "G-361": 86.3, "COLO 800": 141}
{"combination": "nutlin-3 and OSU-03012", "MeWo": 54.3, "COLO 792": 163, "G-361": 154, "COLO 800": 181}
{"combination": "ENMD-2076 and selumetinib", "MeWo": 56.7, "COLO 792": 78.9, "G-361": 213, "COLO 800": 225}
{"combination": "bortezomib and pioglitazone", "MeWo": 2050, "COLO 792": 455, "G-361": 14500, "COLO 800": 67.7}
{"combination": "gemcitabine and GSK650394", "MeWo": 161, "COLO 792": 205, "G-361": 622, "COLO 800": 179}
{"combination": "pioglitazone and CX-4945", "MeWo": 118, "COLO 792": 153, "G-361": 224, "COLO 800": 61.1}
{"combination": "nutlin-3 and vincristine", "MeWo": 98.4, "COLO 792": 184, "G-361": 38.6, "COLO 800": 80.4}
{"combination": "vincristine and vatalanib", "MeWo": 584, "COLO 792": 191, "G-361": 1870, "COLO 800": 278}
{"combination": "KU-0063794 and YM155", "MeWo": 122, "COLO 792": 87.4, "G-361": 167, "COLO 800": 152}
{"combination": "YM155 and FH535", "MeWo": 160, "COLO 792": 206, "G-361": 669, "COLO 800": 314}
{"combination": "ABT-263 and pioglitazone", "MeWo": 253, "COLO 792": 1380, "G-361": 505, "COLO 800": 102}
{"combination": "GSK650394 and KU-0063794", "MeWo": 74.3, "COLO 792": 214, "G-361": 301, "COLO 800": 62.6}
{"combination": "lestaurtinib and sorafenib", "MeWo": 119, "COLO 792": 181, "G-361": 301, "COLO 800": 146}
{"combination": "bexarotene and IMD-0354", "MeWo": 36.0, "COLO 792": 72.5, "G-361": 133, "COLO 800": 82.7}
{"combination": "lestaurtinib and ABT-263", "MeWo": 294, "COLO 792": 5110, "G-361": 315, "COLO 800": 282}
{"combination": "bexarotene and ABT-263", "MeWo": 208, "COLO 792": 1470, "G-361": 284, "COLO 800": 156}
{"combination": "YM155 and gemcitabine", "MeWo": 336, "COLO 792": 340, "G-361": 447, "COLO 800": 180}
{"combination": "GSK650394 and YM155", "MeWo": 249, "COLO 792": 183, "G-361": 291, "COLO 800": 510}
{"combination": "nutlin-3 and selumetinib", "MeWo": 45.8, "COLO 792": 193, "G-361": 277, "COLO 800": 210}
{"combination": "YM155 and bortezomib", "MeWo": 1740, "COLO 792": 516, "G-361": 6300, "COLO 800": 249}
{"combination": "BMS-536924 and nutlin-3", "MeWo": 140, "COLO 792": 172, "G-361": 121, "COLO 800": 285}

Once more, the final 3:

Combination	MeWo	COLO 792	G-361	COLO 800
nutlin-3 and selumetinib	45.8	193	277	210
YM155 and bortezomib	1740	516	6300	249
BMS-536924 and nutlin-3	140	172	121	285